Literature values, collected in article PMC9224751 (International Journal of Molecular Sciences, 2022).
Read-outs that look alike come from different tables or passages of the source.

Experiments:
SARS-CoV-2 [1] = conditions: Vero E6 cells; published; cited from earlier work
SARS-CoV-2 [2] = conditions: Calu-3; published; cited from earlier work

CCC(CC)COC(=O)[C@H](C)N[P@](=O)(OC[C@H]1O[C@@](C#N)(c2ccc3c(N)ncnn23)[C@H](O)[C@@H]1O)Oc1ccccc1 [Remdesivir]
IC50 (SARS-CoV-2 [1]): 1490 nM | IC50 (SARS-CoV-2 [2]): 600 nM
